This assay can be described thus: qHTS Assay to Find Inhibitors of Chronic Active B-Cell Receptor Signaling. The settings on record: ABC-DLBCL IkBa-CBG/CBR reporter, luminescence ratio (green luciferase fused to IkBa over red control in TMD8 lymphoma cells), 4 h. The method in brief: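 Compounds up to 46 uM were incubated four hours with TMD8 cells whose green CBG68 luciferase is fused to IkappaBalpha; red CBR luminescence normalised the signal, and concentration-effect curves were fitted to fusion, red and ratio data.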

The mark [1] stands for this setting: measured here: CBR red luminescence, cell number.
[2] abbreviates: measured here: IkBa-CBG green luminescence.

The list shows a part of the results. Shown are side measurements of this screen, not its main read-out; they come without a call. Most of these compounds were active or inconclusive in the main read-out, so they are no random draw. Potencies come from curve fits of mixed quality, noted in brackets.

As to `NC(=O)C1CCN(c2nc(-c3cccnc3)cs2)CC1`, the concentration at half-maximal activity (AC50) (in general, the midpoint of the concentration-response curve, whichever way the signal moves) under setting [1] was 1.84 µM [rising, full curve, poor fit]. Same read-out and setting: the same measure for `O=C(COC(=O)c1cc(NS(=O)(=O)c2cccs2)ccc1O)Nc1cc(Cl)ccc1Cl`: 35.5 µM [rising, single point]; for `COCc1nnc(NC(=O)c2cc3ccccc3o2)s1`: 2 µM [falling, full curve, poor fit].

Regarding `COc1ccc(S(=O)(=O)N2c3ccccc3OCC2C)cc1` (stereo not drawn), the concentration at half-maximal activity (AC50) under setting [1] was 35.5 µM [rising, single point] and the AC50 under setting [2] was 11.2 µM [falling, partial curve]. Consider `COc1ccc(OC)c(C2C3=C(N=c4s/c(=C\c5cccc(O)c5)c(=O)n42)c2ccccc2CC3)c1` (stereo not drawn), for which the AC50 under setting [1] was 29.1 µM [falling, single point] and the AC50 under setting [2] was 25.9 µM [rising, partial curve, poor fit]. Consider `Cc1ccc(-n2c(C)nc3ncnc(-c4ccccc4)c32)cc1`, for which the half-maximal activity concentration (AC50) under setting [1] was 4.11 µM [rising, partial curve, poor fit]. Still for that read-out and setting: in the case of `N/C(=N\OC(=O)/C=C/c1ccccc1)c1ccccn1` it was 0.447 µM [falling, full curve]; in that of `Cc1ccccc1CNC(=O)c1ccccc1N`, 0.82 µM [falling, full curve, poor fit]. Still for that read-out and setting: the same measure for `CC(Sc1nnc(C2CC2)n1C)C(=O)Nc1ccc2c(c1)CCC2` (stereo not drawn): 32.6 µM [rising, single point]. Still for that read-out and setting: the same measure for `O=C(NNC(=O)c1cc(-c2cccnc2)nc2ccccc12)Nc1ccc(Cl)cc1`: 3.55 µM [rising, partial curve, poor fit]. For `COc1ccc(-c2ccc(-c3nnc(-c4ccncc4)o3)cc2)cc1`, under setting [1], the half-maximal activity concentration (AC50) is 35.5 µM [rising, single point]. Turning to `Cc1ccc(S(=O)(=O)n2c(C)nc3cc(C)ccc32)cc1`, under setting [1], the half-maximal activity concentration (AC50) is 3.98 µM [rising, partial curve, poor fit].

As for `COC(=O)c1sccc1-n1cccc1C(=O)C(=O)Nc1ccc(F)cc1`, under setting [1], the AC50 is 11.2 µM [falling, partial curve, poor fit]. Consider `O=C(COC(=O)c1cccc(N2C(=O)C3CC=CCC3C2=O)c1)c1ccccc1` (stereo not drawn), for which, under setting [1], the concentration at half-maximal activity (AC50) was 35.5 µM [falling, single point]. Consider `Cc1cc2n(n1)SC(Nc1cc(Cl)ccc1Cl)N2` (stereo not drawn), for which the AC50 under setting [1] is 11.6 µM [rising, partial curve, poor fit]. Consider `O=C(Nc1nc2ccccc2[nH]1)c1ccccc1[N+](=O)[O-]`, for which, under setting [1], the half-maximal activity concentration (AC50) was 35.5 µM [falling, single point]. Same read-out and setting: the same measure for `CCOC(=O)Cc1csc(SCC(=O)N(CC(C)C)c2c(N)n(Cc3ccccc3)c(=O)[nH]c2=O)n1`: 3.66 µM [falling, full curve, poor fit].

Take `O=C(N/N=C/c1cccnc1)c1ccc2c(c1)OCCO2`: the AC50 under setting [1] was 10.3 µM [falling, partial curve, poor fit].

For the compound `O=C(CN1CCCCCC1)Nc1ccc(S(=O)(=O)N2CCCCC2)cc1`, under setting [1], the AC50 was 4.47 µM [falling, full curve, poor fit]. Same read-out and setting: the same measure for `COC(=O)c1sccc1NC(=O)CC1C(=O)NCCN1C(=O)Nc1ccc(OCc2ccccc2)cc1` (stereo not drawn): 11.2 µM [falling, partial curve]. For `Cc1cccc(N2CCN(S(=O)(=O)c3ccc4c(c3)CCN4C(=O)CCC(=O)O)CC2)c1C`, the AC50 under setting [1] was 7.94 µM [rising, partial curve]. On the same count and under the same terms, in the case of `CCN(CC)S(=O)(=O)c1ccc(NC(=O)COC(=O)c2ccc(NC(=O)CC#N)cc2)cc1` it was 25.1 µM [falling, single point]; in that of `CCOc1ccccc1C(=O)NCC(=O)N1CCC(C)CC1`, 9.2 µM [falling, partial curve]; in that of `Cc1c(N=C2N=C(NC(=O)Nc3ccc(Cl)cc3)c3ccccc32)c(=O)n(-c2ccccc2)n1C`, 4.47 µM [rising, full curve, poor fit]. As to `CCSc1sccc1C1C(C#N)=C(N)N(c2cccnc2)C2=C1C(=O)CCC2` (stereo not drawn), under setting [1], the concentration at half-maximal activity (AC50) was 29.1 µM [rising, single point]. Same read-out and setting: in the case of `CCN(CC)CCN1CCn2c3c(c4cc(C)ccc42)CCCC31` (stereo not drawn) it was 20.6 µM [falling, partial curve, poor fit]. Same read-out and setting: in the case of `Cc1cccc(OCC(=O)Nc2ccccc2N2CCCCC2)c1C` it was 29.1 µM [rising, single point]; in that of `COc1ccc(-c2[nH]n(-c3ccc([N+](=O)[O-])cc3)c(=O)c2C=NCCN2CCNCC2)cc1`, 0.355 µM [falling, full curve]; in that of `COC1C=CC(CNC(=O)c2cc3c(=O)n4cccc(C)c4nc3n2C)(OC)O1` (stereo not drawn), 35.5 µM [rising, single point]. Still for that read-out and setting: the same measure for `COCCn1c(C2CCCCC2)nc2sc3ccccc3c(=O)c2c1=O`: 2.24 µM [rising, full curve, poor fit]; for `CNc1nc(-c2ccccn2)nnc1-c1ccccc1`: 13 µM [falling, partial curve, poor fit]. As to `Cc1cccc(C(=O)Nc2ccc(C(=O)/C=C/c3cccs3)cc2)c1`, the AC50 under setting [1] was 35.5 µM [falling, single point]. As to `O=C(Nc1ccc(S(=O)(=O)N2CCCC2)cc1)c1ccc(Br)o1`, under setting [1], the AC50 is 11.2 µM [falling, partial curve, poor fit]. In the case of `O=c1oc(Nc2ccccc2Cl)nc2ccccc12`, the AC50 under setting [1] is 1.78 µM [falling, full curve]. For `CC(=O)N1CCN(C(=O)Nc2cccc(C(F)(F)F)c2)CC1`, under setting [1], the AC50 is 17.8 µM [rising, single point]. As for `COc1ccc(C2C(C(=O)Nc3ccccc3OC)=C(C)Nc3nnnn32)c(OC)c1` (stereo not drawn), the half-maximal activity concentration (AC50) under setting [1] was 15.8 µM [falling, single point].

Regarding `COc1ccc(NC(=O)c2ccc3snnc3c2)cc1`, the half-maximal activity concentration (AC50) under setting [1] was 9.2 µM [falling, partial curve]. Turning to `O=C(CSc1cccc[n+]1[O-])c1cc2ccccc2o1`, the AC50 by setting is: under setting [1], 31.6 µM [rising, single point]; under setting [2], 31.6 µM [falling, single point].

`Cc1ccc(Cl)cc1NC(=O)c1cnn2c(C(F)F)cc(-c3ccccc3)nc12`: under setting [1], the half-maximal activity concentration (AC50) was 6.31 µM [rising, single point]. Regarding `O=C(Nc1ccccc1C(=O)N/N=C/c1ccc(F)cc1)c1ccccc1Br`, under setting [1], the concentration at half-maximal activity (AC50) is 17.8 µM [falling, single point].
